For experiment [1], the target named is T1, Cancer/testis antigen-45A1 (CT45A1) (human) (UniProt Q5HYN5).
T1 sequence: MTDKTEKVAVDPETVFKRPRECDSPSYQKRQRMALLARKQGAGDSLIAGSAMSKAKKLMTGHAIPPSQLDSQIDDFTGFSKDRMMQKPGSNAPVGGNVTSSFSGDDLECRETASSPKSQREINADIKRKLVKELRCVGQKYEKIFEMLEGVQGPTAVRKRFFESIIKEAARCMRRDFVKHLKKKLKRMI
As to the kind of experiment: co-IP; 400 ul cervical cancer cell lysate with primary monoclonal antibody (1:500) or normal IgG at 4 C for 4 h, then magnetic A/G beads at 4 C overnight; detection by western blotting. On the technique in general: A western blot detects proteins with antibodies after separation by electrophoresis.

The chains behind the UniProt entries cited, without tags or fusion partners.
UniProt P46937: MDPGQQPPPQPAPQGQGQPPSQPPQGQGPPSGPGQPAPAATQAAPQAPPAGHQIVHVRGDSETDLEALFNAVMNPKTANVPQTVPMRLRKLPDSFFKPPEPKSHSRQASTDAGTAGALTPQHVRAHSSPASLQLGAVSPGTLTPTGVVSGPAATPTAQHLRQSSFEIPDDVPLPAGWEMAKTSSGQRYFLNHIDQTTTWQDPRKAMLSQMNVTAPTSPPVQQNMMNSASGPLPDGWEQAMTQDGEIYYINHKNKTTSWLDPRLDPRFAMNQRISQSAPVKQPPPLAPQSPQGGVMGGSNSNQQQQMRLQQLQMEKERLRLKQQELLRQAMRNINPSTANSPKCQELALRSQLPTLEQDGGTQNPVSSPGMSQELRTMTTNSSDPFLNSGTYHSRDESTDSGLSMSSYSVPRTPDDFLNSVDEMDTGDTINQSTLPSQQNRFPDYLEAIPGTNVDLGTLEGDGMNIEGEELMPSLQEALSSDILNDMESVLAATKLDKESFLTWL

Experiment [2] concerns the target T1, Cancer/testis antigen-45A1 (CT45A1) (human). As to the kind of experiment: pull-down; pull-down assay (Fig. 6K); format not told.

One substance from article PMC11090944 can be followed below.

These are yes or no findings as the source states them, for the method shown. In cells and extracts the contact can be indirect. Some results given as binding are weak or reduced against the parent protein; the word gives no strength.

For the substance “Yes-associated protein (YAP) (from UniProt P46937 1-504)”, the binding result in experiment [1] and in experiment [2] was “binds” throughout.
